Measured values reported in patent publication US10272135B2, “Apolipoprotein O and fragments thereof for inducing apoptosis in a cancerous cell” (INSERM (INSTITUT NATIONAL DE LA SANTÉ ET DE LA RECHERCHE …, priority 2014, dated 2019).
For at least one compound, name, drawing or mass did not settle the structure.

Columns and labels:
[1] = test system: H9c2 cardiac myoblasts; assay: Lipid profiling (FAME, diglycerides, triglycerides, BODIPY-palmitate) in cardiac myoblasts; format: cell-based; conditions: palmitate treatment of ApoO cells
From the text: (§1) After ethical committee approval, all patients in this study gave written consent for sample collection and molecular analysis prior to inclusion. Patients were carefully selected by physicians from the Department of Cardiology, Toulouse University Hospital, prior to coronary by-pass surgery. Bioinformatics. Microarray expression data from human heart samples were downloaded from the GEO repository (GSE1145). This series consisted of 107 myocardial samples collected from patients undergoing cardiac transplantation whose failure arises from different etiologies (e.g. idiopathic dilated cardiomyopathy, ischemic cardiomyopathy, valvular cardiomyopathy, and hypertrophic cardiomyopathy) and from “normal” organ donors whose hearts cannot be used for transplants. Arrays were intensity normalized and hierarchical clustering (average group linkage, Pearson correlation, threshold r=0.8) was applied to identify groups of co-expressed genes. […] All ApoO sequences within the expression vectors were verified by DNA double strand sequencing using ABI PRISM®BigDye™ Terminator version 3.1 Ready reaction cycle sequencing kit (Life Technologies SAS, Villebon sur Yvette) and loaded on an ABI 3130XL DNA sequencing instrument (Life Technologies SAS, Villebon sur Yvette). […]

[2] = test system: Caspase-3; assay: Caspase-3 enzymatic activity in H9c2 cardiac myoblasts; format: cell-based; conditions: control cells, increasing doses of palmitate overnight (FIG. 9h)
From the text: as §1

Q: Which intracellular diglycerides ([1]; 100 μM 8 hour (FIG. 7E)) does the source give for `CCCCCCCCCCCCCCCC(=O)O` [palmitate] here?
A: dramatic intracellular accumulation

Q: And the triglyceride levels ([1]; 100 μM 8 hour (FIG. 7F))?
A: did not significantly affect

Q: And the Caspase-3 activity [2]?
A: moderately increased
